Results are given in words; binding and its absence hold for the method and conditions named. Some binding calls cover weakened binding; strength is not graded here.
Biological target: T1, C1-esterase inhibitor (100 kD) from human plasma (human) (UniProt P05155)
T1 sequence: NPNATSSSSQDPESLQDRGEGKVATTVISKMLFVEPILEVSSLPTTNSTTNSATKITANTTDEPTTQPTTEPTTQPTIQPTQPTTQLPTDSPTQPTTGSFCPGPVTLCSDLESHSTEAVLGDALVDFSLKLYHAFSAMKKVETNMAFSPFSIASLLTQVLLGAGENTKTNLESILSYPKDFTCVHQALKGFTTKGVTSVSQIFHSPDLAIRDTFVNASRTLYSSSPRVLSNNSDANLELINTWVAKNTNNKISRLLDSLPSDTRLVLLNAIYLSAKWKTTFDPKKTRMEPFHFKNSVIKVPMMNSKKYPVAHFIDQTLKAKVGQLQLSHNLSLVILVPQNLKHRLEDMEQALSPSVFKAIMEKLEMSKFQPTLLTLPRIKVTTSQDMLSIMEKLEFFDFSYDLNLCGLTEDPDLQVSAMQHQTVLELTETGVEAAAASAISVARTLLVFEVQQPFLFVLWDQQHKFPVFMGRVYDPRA
Experiment: far-western analysis of human plasma proteins

Amino acid sequences for entries named in this document (tags omitted). Residues count along the entry.
UniProt Q939N5, residues 399-601: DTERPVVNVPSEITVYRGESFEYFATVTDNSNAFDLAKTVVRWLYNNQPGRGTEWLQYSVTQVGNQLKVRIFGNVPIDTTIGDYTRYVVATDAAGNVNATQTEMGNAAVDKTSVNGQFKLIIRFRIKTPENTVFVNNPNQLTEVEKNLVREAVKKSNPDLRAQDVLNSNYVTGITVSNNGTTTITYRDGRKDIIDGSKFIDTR

## Siglec-like adhesin GspB from S. gordonii strain M99 (from UniProt Q939N5 399-601)
  binding: binds
